Experimental data: PubChem BioAssay AID1224828 (NIAID, 2016)

Aim: 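Find genes required for NF-kappaB p65 moving into the nucleus after LPS in mouse macrophages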 (primary screen)
System: mouse RAW264.7 G9 macrophage reporter cells (GFP-p65, Tnf promoter-mCherry)
Reagent: siRNA pool against mouse genes, 100 nM
Timing: 2 days siRNA transfection, then 40 min LPS before fixation
Challenge: LPS (Salmonella minnesota R595) at 10 ng/ml
Read-out: 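Microscopy ratio of nuclear to perinuclear-ring GFP-p65 signal, scaled to the plate median; gene score is the average of two replicate robust z-scores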
Direction: p65 translocation robust z-score: higher = more nuclear NF-kappaB p65 after LPS than the plate median; nuclear/cytoplasmic p65 ratio: higher = more nuclear NF-kappaB p65
Hit rule: 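Active if robust z is above 3.3 (negative regulators) or below -1.56, the Tlr4 control median (positive regulators); activity score 50 or more; control wells not called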
Meaning of the calls: active = hit (p65 shift raised or lowered); inactive = no clear change
Here is a random part of about 17,000 deposited reagents. 762 of them (4.5%) count as active. 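Active calls include both raised and lowered p65 entry, mostly lowered; wells with fewer than 50 cells lack a z-score.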 Raw values are not corrected between plates. The numbers tell different reagents against one gene apart.

| gene knocked down | reagent no. | p65 translocation robust z-score | nuclear/cytoplasmic p65 ratio, rep 1 | nuclear/cytoplasmic p65 ratio, rep 2 | low cell count flag | call |
| --- | --- | --- | --- | --- | --- | --- |
| Or1e1f (GeneID 258343) | 1 | -1.44 | 1.4 | 1.23 | enough cells to score | inactive |
| H1f0 (GeneID 14958) | 1 | -0.77 | 1.28 | 1.32 | enough cells to score | inactive |
| Msh2 (GeneID 17685) | 1 | 1.67 | 1.71 | 1.51 | enough cells to score | inactive |
| Txlna (GeneID 109658) | 1 | -0.21 | 1.58 | 1.39 | enough cells to score | inactive |
| Vps16 (GeneID 80743) | 1 | 1.21 | 1.59 | 1.33 | enough cells to score | inactive |
| Fam110c (GeneID 104943) | 1 | 0.42 | 1.54 | 1.6 | enough cells to score | inactive |
| Uaca (GeneID 72565) | 1 | -0.04 | 1.34 | 1.22 | enough cells to score | inactive |
| Flii (GeneID 14248) | 1 | -2.32 | 1.27 | 1.13 | enough cells to score | active |
| Fbxo17 (GeneID 50760) | 1 | -1.43 | 1.36 | 1.28 | enough cells to score | inactive |
| Acot12 (GeneID 74156) | 1 | -0.2 | 1.6 | 1.56 | enough cells to score | inactive |
| Adh7 (GeneID 11529) | 1 | 0.04 | 1.62 | 1.63 | enough cells to score | inactive |
| Cd302 (GeneID 66205) | 1 | -0.46 | 1.5 | 1.59 | enough cells to score | inactive |
| Hip1 (GeneID 215114) | 1 | -0.13 | 1.44 | 1.37 | enough cells to score | inactive |
| Mrps28 (GeneID 66230) | 1 | 0.77 | 1.88 | 1.73 | enough cells to score | inactive |
| Nhlrc3 (GeneID 212114) | 1 | 0.34 | 1.46 | 1.61 | enough cells to score | inactive |
| Lrrc45 (GeneID 217366) | 1 | 0.13 | 1.56 | 1.9 | enough cells to score | inactive |
| Tkt (GeneID 21881) | 1 | -0.65 | 1.42 | 1.43 | enough cells to score | inactive |
| Spry1 (GeneID 24063) | 1 | – | 1.68 | 1.62 | fewer than 50 cells per well; well left out of scoring | inactive |
| Ier2 (GeneID 15936) | 1 | 0.22 | 1.62 | 1.43 | enough cells to score | inactive |
| Rgl2 (GeneID 19732) | 1 | 0.94 | 1.63 | 1.67 | enough cells to score | inactive |
| Pfkm (GeneID 18642) | 1 | – | 1.75 | 1.4 | fewer than 50 cells per well; well left out of scoring | inactive |
| Rab11b (GeneID 19326) | 1 | -1.3 | 1.34 | 1.38 | enough cells to score | inactive |
| Rab11b (GeneID 19326) | 2 | -0.08 | 1.55 | 1.52 | enough cells to score | inactive |
| Tfeb (GeneID 21425) | 1 | -0.3 | 1.46 | 1.49 | enough cells to score | inactive |
| Nosip (GeneID 66394) | 1 | 1.18 | 1.91 | 1.69 | enough cells to score | inactive |
| Slc6a4 (GeneID 15567) | 1 | -0.74 | 1.37 | 1.46 | enough cells to score | inactive |
| Mrm3 (GeneID 67390) | 1 | – | 1.35 | 1.04 | fewer than 50 cells per well; well left out of scoring | inactive |
| Grsf1 (GeneID 231413) | 1 | 0.21 | 1.45 | 1.41 | enough cells to score | inactive |
| 2410137M14Rik (GeneID 76797) | 1 | -0.1 | 1.39 | 1.52 | enough cells to score | inactive |
| Or2g1 (GeneID 258623) | 1 | -1.76 | 1.51 | 1.21 | enough cells to score | active |
| Ndufa6 (GeneID 67130) | 1 | -0.62 | 1.78 | 1.42 | enough cells to score | inactive |
| Tmem68 (GeneID 72098) | 1 | 0.01 | 1.4 | 1.28 | enough cells to score | inactive |
| Garin2 (GeneID 70897) | 1 | – | 1.61 | 2.08 | fewer than 50 cells per well; well left out of scoring | inactive |
| C1qtnf5 (GeneID 235312) | 1 | 3.16 | 2.05 | 1.77 | enough cells to score | inactive |
| Gja1 (GeneID 14609) | 1 | 0.31 | 1.48 | 1.41 | enough cells to score | inactive |
| Top3a (GeneID 21975) | 1 | 1.09 | 1.65 | 1.7 | enough cells to score | inactive |
| Rsph1 (GeneID 22092) | 1 | -0.15 | 1.41 | 1.21 | enough cells to score | inactive |
| Srrm1 (GeneID 51796) | 1 | 1.95 | 1.66 | 1.46 | enough cells to score | inactive |
| Bcap31 (GeneID 27061) | 1 | – | 1.66 | 1.61 | fewer than 50 cells per well; well left out of scoring | inactive |
| Htr5a (GeneID 15563) | 1 | -0.45 | 1.39 | 1.57 | enough cells to score | inactive |
| Apol8 (GeneID 239552) | 1 | -0.65 | 1.53 | 1.5 | enough cells to score | inactive |
| Rabgap1l (GeneID 29809) | 1 | -0.7 | 1.48 | 1.54 | enough cells to score | inactive |
| Rps16 (GeneID 20055) | 1 | – | 1.62 | 1.74 | fewer than 50 cells per well; well left out of scoring | inactive |
| Tor1a (GeneID 30931) | 1 | -0.74 | 1.43 | 1.23 | enough cells to score | inactive |
| Or52n5 (GeneID 259045) | 1 | -0.13 | 1.44 | 1.24 | enough cells to score | inactive |
| Inpp4a (GeneID 269180) | 1 | -1.04 | 1.41 | 1.18 | enough cells to score | inactive |
| Drc2 (GeneID 105833) | 1 | -0.99 | 1.21 | 1.36 | enough cells to score | inactive |
| Ugt3a1 (GeneID 223337) | 1 | -0.77 | 1.49 | 1.57 | enough cells to score | inactive |
| Cdkn2d (GeneID 12581) | 1 | 2.28 | 2.11 | 1.62 | enough cells to score | inactive |
| Msantd3 (GeneID 66665) | 1 | 2.39 | 1.66 | 1.79 | enough cells to score | inactive |
| Pias2 (GeneID 17344) | 1 | 1.15 | 1.49 | 1.58 | enough cells to score | inactive |
| Klk7 (GeneID 23993) | 1 | 1.36 | 1.76 | 1.6 | enough cells to score | inactive |
| Drp2 (GeneID 13497) | 1 | 1.22 | 1.71 | 1.48 | enough cells to score | inactive |
| Ints9 (GeneID 210925) | 1 | 0.56 | 1.69 | 1.84 | enough cells to score | inactive |
| Zzz3 (GeneID 108946) | 1 | -0.14 | 1.45 | 1.23 | enough cells to score | inactive |
| Sephs2 (GeneID 20768) | 1 | -0.37 | 1.36 | 1.33 | enough cells to score | inactive |
| Ak9 (GeneID 633979) | 1 | 0.29 | 1.36 | 1.41 | enough cells to score | inactive |
| Myo3b (GeneID 329421) | 1 | 0.31 | 1.37 | 1.62 | enough cells to score | inactive |
| Klrb1b (GeneID 80782) | 1 | -1.15 | 1.44 | 1.23 | enough cells to score | inactive |
| Klrb1b (GeneID 80782) | 2 | 1.48 | 1.71 | 1.67 | enough cells to score | inactive |

Entries above whose gene name starts with C or c (3):
| gene knocked down | reagent no. | p65 translocation robust z-score | nuclear/cytoplasmic p65 ratio, rep 1 | nuclear/cytoplasmic p65 ratio, rep 2 | low cell count flag | call |
| --- | --- | --- | --- | --- | --- | --- |
| Cd302 (GeneID 66205) | 1 | -0.46 | 1.5 | 1.59 | enough cells to score | inactive |
| C1qtnf5 (GeneID 235312) | 1 | 3.16 | 2.05 | 1.77 | enough cells to score | inactive |
| Cdkn2d (GeneID 12581) | 1 | 2.28 | 2.11 | 1.62 | enough cells to score | inactive |
